In article PMC7674491 one finds binding data, which are given here for two substances.

By UniProt entry, the sequences of proteins in these tests, tags left out. Where a name states a change or a piece, a line headed by the entry shows the natural chain unless it says otherwise.
UniProt P67775: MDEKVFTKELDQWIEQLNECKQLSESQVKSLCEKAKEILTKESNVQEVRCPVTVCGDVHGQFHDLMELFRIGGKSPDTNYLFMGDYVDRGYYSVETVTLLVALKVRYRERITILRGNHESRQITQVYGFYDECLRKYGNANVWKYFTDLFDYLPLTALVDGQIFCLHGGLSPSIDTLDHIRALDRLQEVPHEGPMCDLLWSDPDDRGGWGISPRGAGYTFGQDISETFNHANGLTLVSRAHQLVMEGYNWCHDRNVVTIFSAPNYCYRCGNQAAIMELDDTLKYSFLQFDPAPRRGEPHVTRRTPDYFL

The target in one assay is T1, C-FLAG-PPP2R2B (UniProt Q00005).
T1 sequence: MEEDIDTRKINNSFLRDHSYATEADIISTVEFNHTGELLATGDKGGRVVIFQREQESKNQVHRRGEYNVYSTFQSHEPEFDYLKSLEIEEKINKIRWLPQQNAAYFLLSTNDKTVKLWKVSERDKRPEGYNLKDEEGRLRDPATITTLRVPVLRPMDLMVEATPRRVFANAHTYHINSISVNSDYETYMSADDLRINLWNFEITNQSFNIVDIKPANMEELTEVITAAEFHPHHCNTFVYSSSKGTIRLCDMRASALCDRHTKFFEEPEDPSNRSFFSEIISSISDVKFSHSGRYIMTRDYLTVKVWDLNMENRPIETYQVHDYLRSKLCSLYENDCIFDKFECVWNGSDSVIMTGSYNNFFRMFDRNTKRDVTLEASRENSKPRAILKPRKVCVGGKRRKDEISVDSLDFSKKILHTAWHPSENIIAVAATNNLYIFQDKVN
In words: co-IP; ANTI-FLAG M2 affinity gel on lysates of SKBR3 cells stably expressing FLAG fusion PPP2R2B (cells treated with 10 µg/ml trastuzumab for 6 h); phosphatase assay buffer (20 mM imidazole-HCl, 2 mM EDTA, 2 mM EGTA, 1 mM Na3VO4, 0.1% NP-40, pH 7.0), 4 °C, 3 h, four washes; western blot. (In general: A western blot detects proteins with antibodies after separation by electrophoresis.)

A further assay deals with T2, N-FLAG-PPP2R2B (UniProt Q00005).
T2 sequence: T1 sequence
The description is as above.

No constants are given. Whether binding was seen depends on the method and setting. Binding seen in cells or lysates may run through a third protein. Binding calls can cover weak binding; strength is not graded here. Sequences can lack the tags named with a protein.

On to “PP2A catalytic C subunit (from UniProt P67775)”, for which the binding result in the assay with C-FLAG-PPP2R2B and with N-FLAG-PPP2R2B was “binds” in each case.

With “PP2A scaffolding A subunit (human (endogenous in SKBR3))”, the binding result with C-FLAG-PPP2R2B and in the assay with N-FLAG-PPP2R2B was “binds” throughout.
